From ChEMBL document CHEMBL3632470, “Antimalarial and Antiproliferative Cassane Diterpenes of Caesalpinia sappan” (J Nat Prod, 2015)

Test system: MCF7
Assay: Cytotoxicity against human MCF7 cells after 48 hrs by […]
Format: functional, cell-based
Settings: MCF7, 48 h

## COc1cccc2c1C(=O)c1c(O)c3c(c(O)c1C2=O)C[C@@](O)(C(=O)CO)C[C@@H]3O[C@H]1C[C@H](N)[C@H](O)[C@H](C)O1 [DOXORUBICIN]
  IC50: 830 nM
